Results on two molecules are retold here after publication PMC12914543.

Sequences of proteins named here, by UniProt entry; tags and fusion partners are left off. Residues count along the entry.
UniProt O15455, residues 24-904: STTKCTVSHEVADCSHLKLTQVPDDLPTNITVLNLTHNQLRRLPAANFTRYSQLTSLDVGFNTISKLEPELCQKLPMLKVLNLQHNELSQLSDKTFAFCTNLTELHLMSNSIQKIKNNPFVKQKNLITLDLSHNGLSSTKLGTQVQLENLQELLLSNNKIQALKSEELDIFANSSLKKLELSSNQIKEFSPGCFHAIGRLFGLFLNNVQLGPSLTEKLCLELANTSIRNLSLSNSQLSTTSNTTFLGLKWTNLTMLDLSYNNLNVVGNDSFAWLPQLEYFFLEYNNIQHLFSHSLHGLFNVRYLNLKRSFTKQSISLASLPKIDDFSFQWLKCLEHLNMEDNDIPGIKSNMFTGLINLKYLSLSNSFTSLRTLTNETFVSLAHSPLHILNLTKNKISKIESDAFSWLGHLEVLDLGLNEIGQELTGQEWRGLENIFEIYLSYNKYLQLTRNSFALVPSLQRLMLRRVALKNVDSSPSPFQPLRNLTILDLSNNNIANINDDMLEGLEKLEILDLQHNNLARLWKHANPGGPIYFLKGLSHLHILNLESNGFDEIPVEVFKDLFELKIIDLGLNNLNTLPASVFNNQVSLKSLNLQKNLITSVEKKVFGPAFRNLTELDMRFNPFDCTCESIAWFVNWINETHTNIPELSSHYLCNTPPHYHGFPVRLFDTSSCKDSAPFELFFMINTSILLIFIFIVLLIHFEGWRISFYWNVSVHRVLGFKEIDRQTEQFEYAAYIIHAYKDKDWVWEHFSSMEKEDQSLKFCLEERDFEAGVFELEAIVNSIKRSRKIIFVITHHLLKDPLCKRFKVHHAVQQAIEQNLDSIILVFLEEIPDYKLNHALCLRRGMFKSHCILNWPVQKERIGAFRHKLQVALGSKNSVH

No constants are given. Whether binding was seen depends on the method and setting. Binding seen in cells or lysates may run through a third protein. Some binding calls cover weakened binding; strength is not graded here.

Assay [1] concerns the target T1, high-mobility group box 3 (HMGB3) (human (endogenous in ECA109 and EC9706)) (UniProt O15347).
T1 sequence: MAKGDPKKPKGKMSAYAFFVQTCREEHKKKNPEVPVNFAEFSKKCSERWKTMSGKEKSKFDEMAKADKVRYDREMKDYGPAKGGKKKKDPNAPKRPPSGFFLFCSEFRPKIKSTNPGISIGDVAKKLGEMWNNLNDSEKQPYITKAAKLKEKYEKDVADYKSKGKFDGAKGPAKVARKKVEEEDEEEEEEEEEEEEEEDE
The experiment in a line: co-IP; reciprocal co-IP of endogenous proteins; non-denaturing lysates of ECA109 and EC9706 cells, anti-HMGB3 or anti-TLR3 antibody, protein A/G Sepharose overnight at 4 °C, Western blot. On the technique in general: A western blot detects proteins with antibodies after separation by electrophoresis.

Assay [2] addresses His-tagged wild-type TLR3 (UniProt O15455). Nature of the assay: co-IP; co-IP with His-tagged wild-type or mutant TLR3 from expression plasmids; anti-His-tag antibody listed for Co-IP; Western blot.
Assay [3] has as its target toll-like receptor 3 (TLR3) (human (endogenous in ECA109 and EC9706)) (UniProt O15455). Nature of the assay: co-IP; reciprocal co-IP of endogenous proteins; non-denaturing lysates of ECA109 and EC9706 cells, anti-HMGB3 or anti-TLR3 antibody, protein A/G Sepharose overnight at 4 °C, Western blot.

“toll-like receptor 3 (TLR3) (from UniProt O15455 24-904)”: the binding entry in assay [1] was “binds”.

B1: high-mobility group box 3 (HMGB3) (protein, UniProt O15347 1-200)
chain: MAKGDPKKPKGKMSAYAFFVQTCREEHKKKNPEVPVNFAEFSKKCSERWKTMSGKEKSKFDEMAKADKVRYDREMKDYGPAKGGKKKKDPNAPKRPPSGFFLFCSEFRPKIKSTNPGISIGDVAKKLGEMWNNLNDSEKQPYITKAAKLKEKYEKDVADYKSKGKFDGAKGPAKVARKKVEEEDEEEEEEEEEEEEEEDE
Regarding B1, the binding entry in assay [2] and in assay [3] was “binds” throughout.
